Laboratory results taken from PMC7602221.
The exact form of at least one protein or probe is not confirmed.

Target: glycated human serum albumin (GHSA) (Homo sapiens) (UniProt P02768)
Test: rGO fluorescence recovery
Conditions: 12.5 ug GHSA in 100 uL, aptamer titrated; 1x PBS pH 7.4, 30 min incubation, then rGO 0.5 mg/mL (100 uL) added, centrifuged, supernatant fluorescence read; native protein; label: 5'-FAM; single-stranded DNA

ATGCGGATCCCGCGCGCAGTGCAGGGAGCCGCTCCACGTACGTTGCGCGAAGCTTGCGC [GABAS-01]
Kd: 1.75 nM
